Positions count from the first letter of the chain named. Results are given in words; binding and its absence hold for the method and conditions named. In cells and extracts the contact can be indirect. Some entries that bind do so weakly or less than the wild type. Tags and fused reporters may be left off the sequences shown.
Experiments:
[1] = biological target: T1, Bladder cancer-associated protein (BLCAP), wild type, 3×FLAG-tagged (human) (UniProt P62952); assay: co-IP; 293T cells co-transfected with 3×FLAG-BLCAP and HA-STAT3, lysed 24 h later; lysate immunoprecipitated with anti-FLAG antibody plus protein G magnetic beads, 20 minutes at room temperature, six washes; blot with anti-HA; normal mouse IgG as control
T1 sequence: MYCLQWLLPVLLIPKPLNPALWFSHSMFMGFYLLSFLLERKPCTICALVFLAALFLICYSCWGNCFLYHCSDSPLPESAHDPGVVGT

The chains behind the UniProt entries cited, without tags or fusion partners.
UniProt P40763: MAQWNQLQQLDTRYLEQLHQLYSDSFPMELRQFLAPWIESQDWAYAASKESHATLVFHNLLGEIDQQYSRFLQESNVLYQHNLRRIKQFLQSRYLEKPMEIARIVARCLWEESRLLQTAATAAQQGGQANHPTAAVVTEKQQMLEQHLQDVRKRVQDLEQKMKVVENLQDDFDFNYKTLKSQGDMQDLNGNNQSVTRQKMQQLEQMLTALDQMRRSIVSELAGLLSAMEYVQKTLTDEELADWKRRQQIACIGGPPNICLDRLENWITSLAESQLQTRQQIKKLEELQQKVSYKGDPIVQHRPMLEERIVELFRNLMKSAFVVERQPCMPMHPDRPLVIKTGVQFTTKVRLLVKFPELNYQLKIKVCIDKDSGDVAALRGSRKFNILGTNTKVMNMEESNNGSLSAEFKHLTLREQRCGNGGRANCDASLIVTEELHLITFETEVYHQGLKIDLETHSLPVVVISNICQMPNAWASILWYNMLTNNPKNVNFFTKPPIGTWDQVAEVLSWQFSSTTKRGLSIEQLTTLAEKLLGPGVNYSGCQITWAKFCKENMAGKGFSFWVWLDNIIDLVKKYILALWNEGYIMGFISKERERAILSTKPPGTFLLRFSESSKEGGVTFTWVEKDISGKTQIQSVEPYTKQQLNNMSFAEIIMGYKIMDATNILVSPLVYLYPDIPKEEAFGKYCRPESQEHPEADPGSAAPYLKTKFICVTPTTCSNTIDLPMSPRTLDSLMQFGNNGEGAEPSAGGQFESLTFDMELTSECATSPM

[2] = biological target: T2, Edited BLCAP with A>G at site 5 (CCLQ-FLAG) (human) (UniProt P62952); assay: co-IP; 293T or HeLa cells transfected with 3×FLAG-tagged BLCAP (wild type or edited), lysed 24 h later; lysate immunoprecipitated with anti-FLAG antibody plus protein G magnetic beads, 20 minutes at room temperature, six washes; blot for endogenous STAT3; normal mouse IgG as control
T2 sequence: T1 sequence with Y2C

[3] = biological target: T1, Bladder cancer-associated protein (BLCAP), wild type, 3×FLAG-tagged (human); assay: as above

| binding [1] | binding [2] | binding [3] | Substance |
| --- | --- | --- | --- |
| binds | – | – | Signal transducer and activator of transcription 3 (STAT3), HA-tagged (from UniProt P40763 1-770) |
| – | binds | binds | Signal transducer and activator of transcription 3 (STAT3), endogenous (from UniProt P40763 1-770) |

From article PMC5503622
